PubChem BioAssay AID1259405, NCATS, 2018
Aim: 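Silenced genes that increase secreted GFP made by CHO cells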 (primary screen). System: Chinese hamster CHO-K1 ovary cells with stable secreted eGFP expression. Reagent: single siRNA against mouse genes, 0.8 pmol siRNA per well (2 µl of 400 nM stock). Timing: 3 days. Read-out: 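Percent of the per-plate non-targeting control median for intracellular GFP per well by laser scanning cytometry and for cell viability by ATP luminescence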. Direction: GFP, % of control: higher = more GFP per well, higher productivity; viability (ATP), % of control: higher = more viable cells (more ATP). Active means: 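a knock-down is called active if GFP reaches 120% or more of non-targeting control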.
The whole screen tested about 50,000 reagents; below is a random part of them. About 4,000 of all reagents (8%) were called active. 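Mouse siRNA library applied to hamster cells; one well for each siRNA.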 Reagents against one gene are numbered here.

| gene knocked down | siRNA no. | GFP, % of control | viability (ATP), % of control | Call |
| --- | --- | --- | --- | --- |
| Grin2d | 1 | 54.3 | 58.7 | inactive |
| Grin2d | 2 | 52.6 | 43.7 | inactive |
| Grin2d | 3 | 53.3 | 54.5 | inactive |
| Lrrc75a | 1 | 68.5 | 53.1 | inactive |
| Lrrc75a | 2 | 86.1 | 94.9 | inactive |
| Lrrc75a | 3 | 142 | 154 | active |
| Tmem54 | 1 | 78.7 | 70.2 | inactive |
| Tmem54 | 2 | 105 | 87.8 | inactive |
| Tmem54 | 3 | 75.6 | 79.3 | inactive |
| Cd300e | 1 | 58.2 | 44.9 | inactive |
| Cd300e | 2 | 63 | 57.3 | inactive |
| Cd300e | 3 | 64.6 | 63.5 | inactive |
| Tyw3 | 1 | 67.8 | 60.6 | inactive |
| Tyw3 | 2 | 73.3 | 82.3 | inactive |
| Tyw3 | 3 | 105 | 132 | inactive |
| Adamts13 | 1 | 120 | 102 | active |
| Adamts13 | 2 | 71.1 | 54.5 | inactive |
| Adamts13 | 3 | 46.2 | 37.4 | inactive |
| Uros | 1 | 50.5 | 52.6 | inactive |
| Uros | 2 | 142 | 90.3 | active |
| Uros | 3 | 81.8 | 84.2 | inactive |
| Gm5420 | 1 | 79.6 | 89.5 | inactive |
| Gm5420 | 2 | 89.4 | 82.5 | inactive |
| Gm5420 | 3 | 85.1 | 35.2 | inactive |
| Plcz1 | 1 | 50 | 73.9 | inactive |
| Plcz1 | 2 | 121 | 130 | active |
| Plcz1 | 3 | 39.6 | 22.6 | inactive |
| P2ry14 | 1 | 151 | 52.6 | active |
| P2ry14 | 2 | 91.2 | 84.5 | inactive |
| P2ry14 | 3 | 76 | 82.3 | inactive |
| Pcdhgb5 | 1 | 103 | 74.6 | inactive |
| Pcdhgb5 | 2 | 78.2 | 72.3 | inactive |
| Pcdhgb5 | 3 | 49.9 | 53.8 | inactive |
| Mtrf1l | 1 | 74.7 | 73.6 | inactive |
| Mtrf1l | 2 | 81.8 | 61.5 | inactive |
| Mtrf1l | 3 | 78.1 | 40.6 | inactive |
| Fam167a | 1 | 80.7 | 39.8 | inactive |
| Fam167a | 2 | 57.2 | 53.7 | inactive |
| Fam167a | 3 | 78.4 | 80 | inactive |
| Or9m1b | 1 | 43 | 52.1 | inactive |
| Or9m1b | 2 | 58.6 | 60 | inactive |
| Or9m1b | 3 | 66.8 | 46.9 | inactive |
| Ly6g6g | 1 | 53.7 | 69.6 | inactive |
| Ly6g6g | 2 | 47.7 | 45.2 | inactive |
| Ly6g6g | 3 | 92.6 | 92 | inactive |
| Trim50 | 1 | 116 | 104 | inactive |
| Trim50 | 2 | 64 | 73 | inactive |
| Trim50 | 3 | 65.9 | 88.6 | inactive |
| Lims2 | 1 | 83.8 | 123 | inactive |
| Lims2 | 2 | 39.6 | 43.5 | inactive |
| Or4b1d | 1 | 43.3 | 31.4 | inactive |
| Or4b1d | 2 | 191 | 56.9 | active |
| Or4b1d | 3 | 34.3 | 68.8 | inactive |
| Pask | 1 | 63.3 | 61.4 | inactive |
| Gbp2b | 1 | 25.2 | 42.2 | inactive |
| Gbp2b | 2 | 51.7 | 99.1 | inactive |
| Gbp2b | 3 | 37.3 | 52.8 | inactive |
| Slc9a9 | 1 | 71.6 | 91.4 | inactive |
| Slc9a9 | 2 | 84.8 | 85.7 | inactive |
| Slc9a9 | 3 | 66.4 | 66 | inactive |
| Abtb3 | 1 | 67.8 | 48.7 | inactive |
| Abtb3 | 2 | 77.8 | 79 | inactive |
| Abtb3 | 3 | 56.6 | 52.1 | inactive |
| Eif3c | 1 | 34 | 30.4 | inactive |
| Eif3c | 2 | 75.5 | 41.6 | inactive |
| Eif3c | 3 | 107 | 60.8 | inactive |
| Nudt7 | 1 | 26.8 | 14.3 | inactive |
| Nudt7 | 2 | 47.2 | 90.4 | inactive |
| Nudt7 | 3 | 71.7 | 72.2 | inactive |
| Tek | 1 | 79.7 | 56.7 | inactive |
| Tek | 2 | 87.7 | 69.8 | inactive |
| Tek | 3 | 63.2 | 52.9 | inactive |
| Cd209d | 1 | 85.3 | 82 | inactive |
| Cd209d | 2 | 75.6 | 68.9 | inactive |
| Cd209d | 3 | 65.3 | 99.2 | inactive |
| Mon1b | 1 | 73 | 89.3 | inactive |
| Mon1b | 2 | 116 | 114 | inactive |
| Mon1b | 3 | 68.7 | 89 | inactive |
| Map3k3 | 1 | 123 | 79.9 | active |
| Map3k3 | 2 | 74.6 | 58.1 | inactive |
| Map3k3 | 3 | 61.2 | 78.4 | inactive |
| Ccbe1 | 1 | 34.2 | 52.1 | inactive |
| Ccbe1 | 2 | 141 | 75.8 | active |
| Ccbe1 | 3 | 34.8 | 78.2 | inactive |

Reagents listed so far marked active, once more:
| gene knocked down | siRNA no. | GFP, % of control | viability (ATP), % of control | Call |
| --- | --- | --- | --- | --- |
| Lrrc75a | 3 | 142 | 154 | active |
| Adamts13 | 1 | 120 | 102 | active |
| Uros | 2 | 142 | 90.3 | active |
| Plcz1 | 2 | 121 | 130 | active |
| P2ry14 | 1 | 151 | 52.6 | active |
| Or4b1d | 2 | 191 | 56.9 | active |
| Map3k3 | 1 | 123 | 79.9 | active |
| Ccbe1 | 2 | 141 | 75.8 | active |
